Source: publication PMC4347857, “Characterization of the Mycobacterial Acyl-CoA Carboxylase Holo Complexes Reveals Their Functional Expansion into Amino Acid Catabolism” (PLoS Pathogens, 2015)
No constants are given. Whether binding was seen depends on the method and setting. For some assays here: In cells and extracts the contact can be indirect. Some binding calls cover weakened binding; strength is not graded here.

Sequences of proteins named here, by UniProt entry; tags and fusion partners are left off.
UniProt O86318: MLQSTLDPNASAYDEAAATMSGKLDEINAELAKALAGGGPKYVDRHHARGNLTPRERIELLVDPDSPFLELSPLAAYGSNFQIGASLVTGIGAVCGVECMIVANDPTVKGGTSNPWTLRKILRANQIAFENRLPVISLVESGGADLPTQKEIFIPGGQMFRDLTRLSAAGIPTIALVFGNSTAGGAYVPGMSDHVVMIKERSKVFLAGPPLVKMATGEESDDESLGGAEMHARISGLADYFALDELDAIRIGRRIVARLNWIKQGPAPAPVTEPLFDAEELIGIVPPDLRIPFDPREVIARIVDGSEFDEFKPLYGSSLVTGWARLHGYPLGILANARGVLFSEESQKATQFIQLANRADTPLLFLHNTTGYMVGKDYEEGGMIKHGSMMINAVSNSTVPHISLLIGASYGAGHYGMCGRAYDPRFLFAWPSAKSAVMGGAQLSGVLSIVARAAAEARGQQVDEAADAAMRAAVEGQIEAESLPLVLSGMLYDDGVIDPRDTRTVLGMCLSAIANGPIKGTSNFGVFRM
UniProt A5U114: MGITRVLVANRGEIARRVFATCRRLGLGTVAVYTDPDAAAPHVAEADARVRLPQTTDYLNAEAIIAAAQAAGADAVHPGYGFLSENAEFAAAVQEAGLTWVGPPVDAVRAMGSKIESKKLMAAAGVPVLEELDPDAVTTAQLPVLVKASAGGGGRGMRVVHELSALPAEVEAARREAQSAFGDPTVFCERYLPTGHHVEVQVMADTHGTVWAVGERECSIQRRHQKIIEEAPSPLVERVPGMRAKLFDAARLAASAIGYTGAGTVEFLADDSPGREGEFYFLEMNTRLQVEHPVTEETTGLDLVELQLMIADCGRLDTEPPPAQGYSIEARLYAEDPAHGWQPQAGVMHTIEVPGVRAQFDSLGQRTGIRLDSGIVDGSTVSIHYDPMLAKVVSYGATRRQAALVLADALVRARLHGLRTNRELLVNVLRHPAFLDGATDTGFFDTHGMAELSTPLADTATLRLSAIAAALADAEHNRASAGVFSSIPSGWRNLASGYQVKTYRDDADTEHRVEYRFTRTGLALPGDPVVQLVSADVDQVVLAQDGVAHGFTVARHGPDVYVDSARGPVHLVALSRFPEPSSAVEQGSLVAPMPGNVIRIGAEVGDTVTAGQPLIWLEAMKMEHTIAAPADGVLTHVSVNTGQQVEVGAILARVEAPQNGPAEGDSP

What was measured:
[1] = target: M. tuberculosis AccD2 (RV0974c), His-tagged (M. tuberculosis) (UniProt O86318); test: SEC; both purified
[2] = target: M. tuberculosis AccD2 (RV0974c), His-tagged (M. tuberculosis) (UniProt O86318); test: pull-down

Q: For “M. tuberculosis AccA2 (Rv0973c) (from UniProt A5U114 1-667)”, which binding [1] is on record?
A: The binding was “binds”.

Q: And the binding [2]?
A: The binding was “binds”.
